Results taken from article PMC12774660 (Nucleic Acids Research, 2026).
These are yes or no findings as the source states them, for the method shown. Sequences can lack the tags named with a protein.

By UniProt entry, the sequences of proteins in these tests, tags left out. Where a name states a change or a piece, a line headed by the entry shows the natural chain unless it says otherwise.
UniProt Q9UKF6: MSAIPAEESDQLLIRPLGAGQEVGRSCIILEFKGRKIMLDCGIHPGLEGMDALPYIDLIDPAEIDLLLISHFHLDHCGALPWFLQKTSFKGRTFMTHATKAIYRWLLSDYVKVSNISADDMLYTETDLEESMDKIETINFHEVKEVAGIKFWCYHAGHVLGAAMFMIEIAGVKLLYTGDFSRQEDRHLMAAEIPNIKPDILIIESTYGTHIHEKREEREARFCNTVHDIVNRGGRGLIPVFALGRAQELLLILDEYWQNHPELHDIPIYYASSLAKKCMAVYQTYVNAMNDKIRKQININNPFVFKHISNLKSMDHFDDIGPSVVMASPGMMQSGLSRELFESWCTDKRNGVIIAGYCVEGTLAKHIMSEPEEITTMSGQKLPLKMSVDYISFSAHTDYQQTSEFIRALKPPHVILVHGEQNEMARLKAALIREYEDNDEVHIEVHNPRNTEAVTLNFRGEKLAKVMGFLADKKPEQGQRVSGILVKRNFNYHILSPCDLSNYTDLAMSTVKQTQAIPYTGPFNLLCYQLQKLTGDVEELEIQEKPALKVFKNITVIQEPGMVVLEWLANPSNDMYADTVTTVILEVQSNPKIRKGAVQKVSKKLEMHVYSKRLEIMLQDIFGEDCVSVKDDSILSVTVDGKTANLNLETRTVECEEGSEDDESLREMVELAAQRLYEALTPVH

Target: T1, MBP–CstF77 fusion protein (human CstF77 residues 666–717), from E. coli (human) (UniProt Q12996)
T1 sequence: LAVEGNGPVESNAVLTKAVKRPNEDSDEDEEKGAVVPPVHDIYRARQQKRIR
Assay: pull-down; amylose resin; MBP–CstF77 (human, residues 666–717) as bait, purified HCC as prey; control: amylose beads alone; both purified

binding: no binding
Substance: histone pre-mRNA cleavage complex (HCC) (from UniProt Q9UKF6 1-684; Q9P2I0 1-782; Q92797 30-1101; P33240 1-577)
